Data as given in the supplement of paper PMC10849652.
The list shows a part of the results. Residues, ends and D or L forms follow the SMILES beside them. *: point of attachment. Cbz = O=C(OCc1ccccc1)*

Sequences of proteins named here, by UniProt entry; tags and fusion partners are left off. A change or cut given only in a name is not applied to a line headed by its entry.
UniProt Q13033: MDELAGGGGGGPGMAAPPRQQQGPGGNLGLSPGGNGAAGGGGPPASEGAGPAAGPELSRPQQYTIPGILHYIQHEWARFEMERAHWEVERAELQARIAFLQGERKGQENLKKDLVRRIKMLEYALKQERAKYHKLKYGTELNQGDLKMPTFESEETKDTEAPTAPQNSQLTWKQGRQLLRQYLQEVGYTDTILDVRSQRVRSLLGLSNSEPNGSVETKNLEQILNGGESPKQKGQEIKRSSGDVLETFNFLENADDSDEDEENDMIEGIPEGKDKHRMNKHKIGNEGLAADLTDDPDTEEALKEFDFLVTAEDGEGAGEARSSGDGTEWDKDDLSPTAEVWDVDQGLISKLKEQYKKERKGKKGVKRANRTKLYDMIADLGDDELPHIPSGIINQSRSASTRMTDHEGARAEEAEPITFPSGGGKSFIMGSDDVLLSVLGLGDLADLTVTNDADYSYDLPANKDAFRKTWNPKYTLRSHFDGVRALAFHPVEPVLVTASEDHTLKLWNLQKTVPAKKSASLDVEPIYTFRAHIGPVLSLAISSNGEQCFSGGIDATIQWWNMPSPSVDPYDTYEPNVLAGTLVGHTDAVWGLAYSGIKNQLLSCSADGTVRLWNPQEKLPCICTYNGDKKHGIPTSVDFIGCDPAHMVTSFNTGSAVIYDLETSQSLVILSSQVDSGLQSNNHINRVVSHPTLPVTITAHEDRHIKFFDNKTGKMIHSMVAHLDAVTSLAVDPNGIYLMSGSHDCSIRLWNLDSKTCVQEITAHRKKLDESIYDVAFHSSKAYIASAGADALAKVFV
UniProt O15260: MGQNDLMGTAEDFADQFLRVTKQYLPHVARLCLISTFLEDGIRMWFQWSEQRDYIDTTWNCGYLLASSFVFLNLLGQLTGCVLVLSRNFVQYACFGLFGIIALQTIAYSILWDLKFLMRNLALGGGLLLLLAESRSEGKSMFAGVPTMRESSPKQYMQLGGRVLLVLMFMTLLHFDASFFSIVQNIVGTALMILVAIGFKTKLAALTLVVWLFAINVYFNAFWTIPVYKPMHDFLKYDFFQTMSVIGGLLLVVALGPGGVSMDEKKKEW
UniProt Q6ICL3: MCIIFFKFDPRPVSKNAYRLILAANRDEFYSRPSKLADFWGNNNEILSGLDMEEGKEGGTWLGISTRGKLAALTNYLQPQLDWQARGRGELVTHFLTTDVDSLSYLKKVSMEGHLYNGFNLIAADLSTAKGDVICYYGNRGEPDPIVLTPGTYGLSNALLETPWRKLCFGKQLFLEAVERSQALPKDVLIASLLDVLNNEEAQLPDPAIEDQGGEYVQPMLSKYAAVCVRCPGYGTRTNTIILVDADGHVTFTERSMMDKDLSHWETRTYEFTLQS
UniProt Q8IYB8: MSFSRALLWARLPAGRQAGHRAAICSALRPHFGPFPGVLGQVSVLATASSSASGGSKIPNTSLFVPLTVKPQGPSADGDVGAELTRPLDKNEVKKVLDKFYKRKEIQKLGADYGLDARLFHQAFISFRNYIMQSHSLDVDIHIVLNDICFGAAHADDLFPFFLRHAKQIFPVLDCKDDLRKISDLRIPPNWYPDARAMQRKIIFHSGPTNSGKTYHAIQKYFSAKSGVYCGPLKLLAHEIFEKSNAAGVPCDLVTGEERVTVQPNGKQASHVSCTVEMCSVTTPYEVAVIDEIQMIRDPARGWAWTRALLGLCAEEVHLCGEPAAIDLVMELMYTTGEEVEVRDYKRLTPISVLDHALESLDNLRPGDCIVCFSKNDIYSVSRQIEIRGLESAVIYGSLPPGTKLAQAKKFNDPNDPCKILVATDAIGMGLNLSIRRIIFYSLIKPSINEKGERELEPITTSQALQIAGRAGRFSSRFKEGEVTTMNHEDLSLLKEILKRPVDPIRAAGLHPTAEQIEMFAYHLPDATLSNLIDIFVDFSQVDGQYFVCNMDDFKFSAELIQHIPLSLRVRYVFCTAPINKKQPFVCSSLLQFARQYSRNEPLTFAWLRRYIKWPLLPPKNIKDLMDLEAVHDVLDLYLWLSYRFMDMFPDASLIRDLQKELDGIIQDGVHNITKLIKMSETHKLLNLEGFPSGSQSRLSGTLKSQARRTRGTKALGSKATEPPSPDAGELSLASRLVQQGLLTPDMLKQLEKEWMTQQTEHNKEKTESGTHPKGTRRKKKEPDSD
UniProt Q7Z7C8, whole entry, looked up: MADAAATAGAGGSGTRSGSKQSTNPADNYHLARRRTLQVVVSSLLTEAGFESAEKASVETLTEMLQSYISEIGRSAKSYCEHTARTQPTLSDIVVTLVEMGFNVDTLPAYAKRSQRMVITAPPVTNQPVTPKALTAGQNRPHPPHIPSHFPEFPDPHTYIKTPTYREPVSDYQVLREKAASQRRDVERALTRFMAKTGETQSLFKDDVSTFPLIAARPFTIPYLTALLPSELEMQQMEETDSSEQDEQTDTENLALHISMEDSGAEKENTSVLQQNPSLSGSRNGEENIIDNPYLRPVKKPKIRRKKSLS
UniProt Q16563: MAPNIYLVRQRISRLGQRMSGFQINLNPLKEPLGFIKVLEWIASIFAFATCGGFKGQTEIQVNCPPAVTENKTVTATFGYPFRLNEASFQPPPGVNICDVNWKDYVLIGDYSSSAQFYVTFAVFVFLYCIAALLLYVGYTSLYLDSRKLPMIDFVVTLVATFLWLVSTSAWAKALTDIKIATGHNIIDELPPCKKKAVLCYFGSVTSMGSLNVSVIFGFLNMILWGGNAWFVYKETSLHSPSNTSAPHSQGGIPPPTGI
UniProt O43752: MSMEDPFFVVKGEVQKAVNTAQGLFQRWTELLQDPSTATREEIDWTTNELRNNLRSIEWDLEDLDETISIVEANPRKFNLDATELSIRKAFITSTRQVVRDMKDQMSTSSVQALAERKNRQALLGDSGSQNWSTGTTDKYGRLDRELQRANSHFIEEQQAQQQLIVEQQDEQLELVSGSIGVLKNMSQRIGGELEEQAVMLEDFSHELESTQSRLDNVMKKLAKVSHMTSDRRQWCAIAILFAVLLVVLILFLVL
UniProt Q9NVG8: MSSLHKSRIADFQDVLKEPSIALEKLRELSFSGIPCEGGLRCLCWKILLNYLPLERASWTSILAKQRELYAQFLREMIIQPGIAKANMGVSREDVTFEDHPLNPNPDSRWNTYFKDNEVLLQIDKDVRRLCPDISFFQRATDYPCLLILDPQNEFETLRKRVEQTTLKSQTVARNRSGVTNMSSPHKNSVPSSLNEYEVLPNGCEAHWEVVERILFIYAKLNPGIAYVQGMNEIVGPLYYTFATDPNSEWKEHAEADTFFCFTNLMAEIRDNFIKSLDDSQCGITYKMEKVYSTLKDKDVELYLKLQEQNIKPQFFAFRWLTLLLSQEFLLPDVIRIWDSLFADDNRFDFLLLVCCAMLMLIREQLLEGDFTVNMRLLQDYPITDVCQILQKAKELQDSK
UniProt P61764, whole entry, looked up: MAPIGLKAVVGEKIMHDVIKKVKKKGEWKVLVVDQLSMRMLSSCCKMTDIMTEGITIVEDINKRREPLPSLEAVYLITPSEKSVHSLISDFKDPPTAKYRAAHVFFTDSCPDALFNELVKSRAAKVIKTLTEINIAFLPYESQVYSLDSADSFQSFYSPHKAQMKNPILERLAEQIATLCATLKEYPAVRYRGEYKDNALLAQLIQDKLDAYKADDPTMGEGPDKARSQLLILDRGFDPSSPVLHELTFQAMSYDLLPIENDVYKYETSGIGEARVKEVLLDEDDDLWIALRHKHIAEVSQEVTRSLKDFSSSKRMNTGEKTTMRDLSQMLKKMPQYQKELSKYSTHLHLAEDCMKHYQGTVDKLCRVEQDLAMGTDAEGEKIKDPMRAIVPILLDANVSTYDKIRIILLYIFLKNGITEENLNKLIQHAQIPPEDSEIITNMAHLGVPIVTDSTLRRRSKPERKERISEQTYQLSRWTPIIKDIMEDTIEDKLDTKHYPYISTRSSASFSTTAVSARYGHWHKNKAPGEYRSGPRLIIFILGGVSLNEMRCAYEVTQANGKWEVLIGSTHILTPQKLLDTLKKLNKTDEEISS
UniProt Q13188: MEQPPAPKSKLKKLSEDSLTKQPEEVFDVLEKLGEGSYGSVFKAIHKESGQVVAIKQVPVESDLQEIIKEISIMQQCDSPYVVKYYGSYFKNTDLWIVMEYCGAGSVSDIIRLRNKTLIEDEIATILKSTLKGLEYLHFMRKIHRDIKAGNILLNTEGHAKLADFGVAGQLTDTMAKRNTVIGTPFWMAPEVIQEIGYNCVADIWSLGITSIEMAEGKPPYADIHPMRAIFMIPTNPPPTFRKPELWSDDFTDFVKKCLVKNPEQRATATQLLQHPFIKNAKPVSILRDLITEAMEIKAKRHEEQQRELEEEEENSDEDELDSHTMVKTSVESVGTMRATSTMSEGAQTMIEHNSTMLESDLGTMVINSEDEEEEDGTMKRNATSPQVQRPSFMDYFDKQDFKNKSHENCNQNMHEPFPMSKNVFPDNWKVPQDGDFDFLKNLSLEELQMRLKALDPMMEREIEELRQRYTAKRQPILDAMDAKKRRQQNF
UniProt Q9UNE7: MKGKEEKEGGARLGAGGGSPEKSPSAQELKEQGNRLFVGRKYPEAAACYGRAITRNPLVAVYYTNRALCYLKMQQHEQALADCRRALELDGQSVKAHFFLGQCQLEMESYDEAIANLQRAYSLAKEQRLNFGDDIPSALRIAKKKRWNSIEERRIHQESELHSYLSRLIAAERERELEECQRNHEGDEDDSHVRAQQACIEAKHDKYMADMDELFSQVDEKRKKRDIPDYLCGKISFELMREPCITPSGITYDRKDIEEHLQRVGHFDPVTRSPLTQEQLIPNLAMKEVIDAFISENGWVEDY
UniProt Q12962, whole entry, looked up: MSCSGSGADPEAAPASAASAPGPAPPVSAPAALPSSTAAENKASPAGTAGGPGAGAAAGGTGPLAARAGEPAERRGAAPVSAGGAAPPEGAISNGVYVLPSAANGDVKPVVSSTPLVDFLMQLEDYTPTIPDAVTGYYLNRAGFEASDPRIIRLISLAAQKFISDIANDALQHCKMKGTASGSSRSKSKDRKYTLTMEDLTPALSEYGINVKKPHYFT
UniProt Q13148, whole entry, looked up: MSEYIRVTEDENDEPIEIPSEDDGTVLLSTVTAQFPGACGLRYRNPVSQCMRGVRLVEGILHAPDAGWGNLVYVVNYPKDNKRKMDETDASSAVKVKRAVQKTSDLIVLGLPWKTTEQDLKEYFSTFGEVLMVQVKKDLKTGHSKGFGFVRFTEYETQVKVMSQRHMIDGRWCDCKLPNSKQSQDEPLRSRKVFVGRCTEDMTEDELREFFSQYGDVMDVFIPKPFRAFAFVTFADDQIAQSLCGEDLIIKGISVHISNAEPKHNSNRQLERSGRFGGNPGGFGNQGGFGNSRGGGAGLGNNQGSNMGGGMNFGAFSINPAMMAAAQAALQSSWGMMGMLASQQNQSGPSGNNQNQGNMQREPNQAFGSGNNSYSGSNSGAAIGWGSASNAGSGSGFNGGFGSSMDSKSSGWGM
UniProt O60506: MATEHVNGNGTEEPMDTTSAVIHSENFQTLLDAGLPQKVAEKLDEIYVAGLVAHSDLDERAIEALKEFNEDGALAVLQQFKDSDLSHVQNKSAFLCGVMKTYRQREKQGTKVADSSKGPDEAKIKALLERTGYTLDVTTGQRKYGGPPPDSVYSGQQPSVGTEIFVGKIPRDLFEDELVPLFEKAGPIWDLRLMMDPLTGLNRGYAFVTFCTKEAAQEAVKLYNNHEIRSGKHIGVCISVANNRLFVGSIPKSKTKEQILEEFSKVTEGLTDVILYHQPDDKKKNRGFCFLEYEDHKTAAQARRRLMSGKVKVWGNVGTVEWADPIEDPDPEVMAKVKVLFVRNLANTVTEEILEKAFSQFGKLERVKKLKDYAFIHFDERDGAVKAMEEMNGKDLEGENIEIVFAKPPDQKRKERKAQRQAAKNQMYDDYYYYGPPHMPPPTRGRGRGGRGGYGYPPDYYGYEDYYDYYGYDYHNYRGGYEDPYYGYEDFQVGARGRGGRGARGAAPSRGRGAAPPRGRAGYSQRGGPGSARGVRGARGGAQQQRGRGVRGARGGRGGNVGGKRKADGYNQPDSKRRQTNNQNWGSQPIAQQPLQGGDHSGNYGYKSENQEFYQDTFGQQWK

Assays:
Experiment in all cases: log2 fold change, soluble protein after heating vs DMSO (PISA); higher = thermal stabilisation; K562 cells, 10 uM, 30 min; active = over 0.2 and 3.5 SD of the protein, either way, in both replicates (recomputed)
[1] = compound: C#Cc1cccc(Nc2ncnc3cc(OCCOC)c(OCCOC)cc23)c1 [erlotinib]
Outline: (§1)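 K562 cells at 2×10^6 cells/mL were exposed to 10 μM compound for 30 min, then aliquots were heated for 3 min across 48°C-58°C, pooled, and extracted in PBS containing 0.5% NP-40 at 4°C. The supernatant after 21,000xg for 90 min was taken as soluble protein and measured by TMTpro 16plex LC-MS/MS with channel sums equalised. Thermal stability is reported relative to control samples, with values from duplicates. Fold changes are given on a log2 scale.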

[2] = compound: C/C(=N\NC(=O)C1=CC(=CC=C1)S(=O)(=O)N2CCOCC2)/C3=C(C=CC(=C3)Cl)O
Outline: as §1

[3] = compound: C1=CC(=C(C=C1Cl)C2=NC3=NC=CN=C3C(=N2)NC4=CC=NC=C4)F
Outline: as §1

[4] = compound: C1=CC(=CC=C1C2=NC3=C(N2)C=C(C=C3)C(=O)N)OC4=CC=C(C=C4)Cl
Outline: as §1

[5] = compound: C1=CC2=C(C=CC(=C2)/C=C\3/C(=O)NC(=NCC4=CC=CS4)S3)N=C1
Outline: as §1

[6] = compound: C1=CC2=NC=CN=C2C=C1/C=C/3\C(=O)NC(=O)S3
Outline: as §1

[7] = compound: C1=CC=C(C=C1)C2=NC(=C(N2)C3=CC=NC=C3)C4=CC(=C(C=C4)Cl)O
Outline: as §1

[8] = compound: C1=CC=C2C(=C1)C3=NNC4=CC=CC(=C43)C2=O
Outline: as §1

[9] = compound: C1CCN(C1)C(=O)NC2=CC=CC(=C2)NC3=NC=C(C(=N3)NCCC4=CN=CN4)Br
Outline: as §1

[10] = compound: C1CN(CCC1(CC2=CC=C(C=C2)Cl)N)C3=NC=NC4=C3C=CN4
Outline: as §1

[11] = compound: C1COCCN1CCN2C3=CC=CC=C3N=C2NC(=O)C4=CC(=CC=C4)[N+](=O)[O-] [IRAK-1-4 Inhibitor I]
Outline: as §1

[12] = compound: C=CC(=O)N1CCC[C@@H](n2nc(-c3ccc(Oc4ccccc4)cc3)c3c(N)ncnc32)C1 [ibrutinib]
Outline: as §1

[13] = compound: CC(=O)c1cnc2ccc(-c3cc(Cl)c(O)c(Cl)c3)nc2c1N[C@H]1CC[C@H](CN(C)C)CC1
Outline: as §1

[14] = compound: CC(C)(C)Cn1c(N)nc2ccc(-c3[nH]c(C(C)(C)C)nc3-c3ccc(F)cc3)nc21 [ralimetinib]
Outline: as §1

[15] = compound: CC(C)(O)CC(=O)NCCn1ccc2ncnc(Nc3ccc(Oc4cccc(C(F)(F)F)c4)c(Cl)c3)c21
Outline: as §1

[16] = compound: CC(C)C1=C2N=C(C=C(N2N=C1)NCC3=CC=CC=C3)NCCCCCCN
Outline: as §1

[17] = compound: CC(C)C[C@@H](C=O)NC(=O)[C@H](CC(C)C)NC(=O)[C@H](CC(C)C)NC(=O)OCc1ccccc1
Outline: as §1

[18] = compound: CC(C)N(C[C@H]1O[C@@H](n2cnc3c(N)ncnc32)[C@H](O)[C@@H]1O)[C@H]1C[C@@H](CCc2nc3cc(C(C)(C)C)ccc3[nH]2)C1 [pinometostat]
Outline: as §1

[19] = compound: CC1=C(C(CC(=O)N1)C2=CC=C(C=C2)C(F)(F)F)C(=O)NC3=C(C=C4C(=C3)C=NN4)F
Outline: as §1

[20] = compound: CC1=C(C2=C(C=C1)C(=O)C3=CC=CC=C3N2CCCN)C
Outline: as §1

Measured: log2 fold change

TACC3 (UniProt Q9Y6A5)
inactive: [1] -0.003 | [2] 0.023 | [3] 0.017 | [4] 0.003 | [5] 0.05 | [6] 0.044 | [7] -0.022 | [8] -0.03 | [9] 0.007 | [10] -0.012 | [11] 0.015 | [12] 0.01 | [13] 0.035 | [14] -0.006 | [15] 0.015 | [16] 0.061 | [17] -0.004 | [18] -0.043 | [19] 0.025 | [20] 0.034

SYNJ2BP-COX16, A0A087WYV9
inactive: [1] -0.014 | [2] -0.019 | [3] -0.043 | [4] 0.006 | [5] 0.026 | [6] 0.051 | [7] 0.016 | [8] -0.006 | [9] -0.001 | [10] 0.046 | [11] 0.058 | [12] 0.067 | [13] -0.036 | [14] -0.04 | [15] 0.042 | [16] 0.002 | [17] 0.053 | [18] 0.007 | [19] -0.031 | [20] -0.066

STRN3 (UniProt Q13033)
inactive: [1] -0.059 | [2] -0.011 | [3] 0.027 | [4] 0.019 | [5] 0.02 | [6] -0.017 | [7] -0.05 | [8] -0.039 | [9] -0.016 | [10] 0.008 | [11] 0.003 | [12] 0.027 | [13] -0.081 | [14] -0.032 | [15] -0.08 | [16] -0.033 | [17] 0.025 | [18] -0.019 | [19] -0.011 | [20] 0.041

SURF4 (UniProt O15260)
inactive: [1] 0.017 | [2] -0.013 | [3] 0.033 | [4] 0.031 | [5] -0.014 | [6] 0.061 | [7] -0.023 | [8] -0.009 | [9] -0.044 | [10] 0.047 | [11] 0.067 | [12] 0.037 | [13] -0.047 | [14] -0.062 | [15] -0.017 | [16] 0.036 | [17] -0.045 | [18] -0.036 | [19] -0.011 | [20] 0.059

TANGO2 isoform 4 (UniProt Q6ICL3)
inactive: [1] 0.021 | [2] 0.099 | [3] -0.031 | [4] 0.029 | [5] 0.114 | [6] 0.017 | [7] -0.015 | [8] -0.068 | [9] -0.025 | [10] 0.025 | [11] -0.018 | [12] -0.082 | [13] 0.018 | [14] -0.054 | [15] 0.02 | [16] -0.063 | [17] -0.047 | [18] 0.019 | [19] 0.04 | [20] 0.027

SUPV3L1 (UniProt Q8IYB8)
inactive: [1] 0 | [2] 0.003 | [3] 0.019 | [4] -0.019 | [5] -0.006 | [6] 0.023 | [7] 0 | [8] -0.023 | [9] -0.017 | [10] 0.016 | [11] -0.013 | [12] 0.007 | [13] -0.019 | [14] -0.026 | [15] 0.004 | [16] 0.003 | [17] -0.006 | [18] -0.013 | [19] 0.008 | [20] 0.037

TAF8 isoform 2 (UniProt Q7Z7C8)
inactive: [1] -0.055 | [2] -0.285 | [3] 0.106 | [4] 0.062 | [5] 0.077 | [6] 0.084 | [7] 0.012 | [8] 0.028 | [9] -0.053 | [10] -0.003 | [11] 0.083 | [12] -0.055 | [13] 0.085 | [14] 0.021 | [15] -0.087 | [16] 0.014 | [17] 0.007 | [18] 0.121 | [19] 0.01 | [20] -0.024

SYPL1 (UniProt Q16563)
inactive: [1] 0.014 | [2] 0.018 | [3] -0.013 | [4] -0.021 | [5] 0.004 | [6] 0.034 | [7] -0.011 | [8] -0.005 | [9] 0.004 | [10] 0.027 | [11] 0.042 | [12] 0.019 | [13] 0.006 | [14] -0.081 | [15] 0.038 | [16] 0.025 | [17] -0.034 | [18] -0.011 | [19] -0.02 | [20] 0.018

STX6 (UniProt O43752)
inactive: [1] 0.05 | [2] 0.03 | [3] -0.021 | [4] -0.006 | [5] -0.01 | [6] 0.044 | [7] 0.022 | [8] 0.009 | [9] -0.013 | [10] 0.031 | [11] -0.142 | [12] -0.013 | [13] -0.085 | [14] 0.02 | [15] -0.095 | [16] 0.059 | [17] -0.004 | [18] -0.11 | [19] -0.041 | [20] -0.001

TBC1D13 (UniProt Q9NVG8)
inactive: [1] 0.049 | [2] -0.01 | [3] 0.027 | [4] 0.015 | [5] 0.065 | [6] 0.006 | [7] 0.029 | [8] -0.026 | [9] 0.003 | [10] 0.021 | [11] 0.054 | [12] 0.013 | [13] 0.016 | [14] -0.045 | [15] -0.046 | [16] 0.006 | [17] -0.009 | [18] -0.026 | [19] 0.032 | [20] 0.016

STXBP1 (UniProt P61764)
inactive: [1] 0.03 | [2] 0.153 | [3] 0.166 | [4] -0.046 | [5] 0.032 | [6] -0.059 | [7] 0.094 | [8] -0.001 | [9] -0.155 | [10] -0.039 | [11] -0.098 | [12] 0.127 | [13] -0.195 | [14] 0.09 | [15] -0.151 | [16] -0.125 | [17] -0.063 | [18] 0.028 | [19] -0.03 | [20] 0.471

2 records drawn at random from the list so far, as already listed:
TAF8 isoform 2 (UniProt Q7Z7C8)
inactive: [1] -0.055 | [2] -0.285 | [3] 0.106 | [4] 0.062 | [5] 0.077 | [6] 0.084 | [7] 0.012 | [8] 0.028 | [9] -0.053 | [10] -0.003 | [11] 0.083 | [12] -0.055 | [13] 0.085 | [14] 0.021 | [15] -0.087 | [16] 0.014 | [17] 0.007 | [18] 0.121 | [19] 0.01 | [20] -0.024

SYPL1 (UniProt Q16563)
inactive: [1] 0.014 | [2] 0.018 | [3] -0.013 | [4] -0.021 | [5] 0.004 | [6] 0.034 | [7] -0.011 | [8] -0.005 | [9] 0.004 | [10] 0.027 | [11] 0.042 | [12] 0.019 | [13] 0.006 | [14] -0.081 | [15] 0.038 | [16] 0.025 | [17] -0.034 | [18] -0.011 | [19] -0.02 | [20] 0.018

(list continues)

STK3 isoform 2 (UniProt Q13188)
inactive: [1] 0.031 | [2] -0.067 | [3] 0.016 | [4] -0.004 | [5] 0.025 | [6] 0.016 | [7] 0.006 | [8] -0.121 | [9] -0.039 | [10] 0.017 | [11] -0.02 | [12] -0.046 | [13] -0.161 | [14] -0.014 | [15] 0.007 | [16] 0.029 | [17] -0.043 | [18] -0.046 | [19] -0.009 | [20] 0.013

STUB1 (UniProt Q9UNE7)
inactive: [1] 0.003 | [2] 0.003 | [3] -0.242 | [4] 0.064 | [5] -0.064 | [6] 0.046 | [7] -0.009 | [8] 0.065 | [9] 0.041 | [10] -0.146 | [11] -0.096 | [12] -0.057 | [13] 0.013 | [14] 0.012 | [15] -0.001 | [16] -0.218 | [17] 0.137 | [18] 0.303 | [19] -0.023 | [20] -0.037

TAF10 (UniProt Q12962)
inactive: [1] -0.012 | [2] -0.046 | [3] 0.111 | [4] 0.077 | [5] 0.064 | [6] 0.026 | [7] 0.003 | [8] -0.072 | [9] -0.06 | [10] 0.037 | [11] -0.035 | [12] 0.051 | [13] 0.015 | [14] -0.011 | [15] -0.038 | [16] 0.129 | [17] -0.068 | [18] -0.062 | [19] 0.085 | [20] 0.109

TARDBP (UniProt Q13148)
inactive: [1] 0.224 | [2] -0.03 | [3] -0.104 | [4] 0.153 | [5] -0.083 | [6] 0.098 | [7] 0.065 | [8] 0.009 | [9] -0.009 | [10] -0.122 | [11] -0.171 | [12] -0.113 | [13] -0.019 | [14] 0.066 | [15] 0.015 | [16] -0.209 | [17] 0.124 | [18] 0.133 | [19] -0.097 | [20] -0.005

SYNCRIP (UniProt O60506)
inactive: [1] -0.092 | [2] -0.047 | [3] -0.197 | [4] 0.064 | [5] -0.011 | [6] 0.013 | [7] -0.036 | [8] -0.022 | [9] 0.06 | [10] -0.066 | [11] -0.099 | [12] 0.043 | [13] 0.066 | [14] 0.093 | [15] 0.081 | [16] -0.021 | [17] 0.08 | [18] 0.09 | [19] 0.003 | [20] -0.223
